Reference: PubChem BioAssay AID2685 (National Center for Advancing Translational Sciences (NCATS), 2010)
The other results are listed elsewhere or left out. Shown are side measurements of this screen, not its main read-out; they come without a call. Most of these compounds were active or inconclusive in the main read-out, so they are no random draw. Words in brackets tell the shape of the fitted curve; partial curves, single points and poor fits give uncertain potencies.

Test: qHTS Assay for Lipid Storage Modulators in Drosophila S3 Cells;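 for cell number change: cells counted by Cell Tracker Red CMTPX staining in the red channel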
Settings: BODIPY lipid droplet fluorescence, 18-24 h; for cell number change: measured here: cell count max response, cells fed with added oleic acid
Outline: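 Drosophila S3 cells got compounds at several concentrations plus oleic acid (400 uM solution). Laser-scanning cytometry with 488 nm excitation read lipid droplets at 500-530 nm and cells at 575-640 nm. Percent activity was relative to 20 uM Triacsin C.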

[1] = measured here: lipid fluorescence (Fed channel) AC50, cells fed with added oleic acid
[2] = measured here: cell number channel AC50, cells fed with added oleic acid

Row | SMILES | cell number change | AC50 [1] | AC50 [2]
1 | COc1ccccc1C(=O)NCC(=O)NCCc1ccc(Cl)cc1 | 13.9% | 6510 nM [rising, single point] | 
2 | CCOC(=O)/C(C#N)=C\c1cc(C)n(-c2ccccc2)c1C | -0.636% | 206 nM [rising, partial curve, poor fit] | 
3 | COc1ccc(OC)c(/C=N/NC(=O)c2cc[n+](Cc3ccccc3)cc2)c1 | -19.2% |  | 116 nM [falling, full curve, poor fit]
4 | O=C1C=C(O)C(n2cncn2)C(c2ccc(F)cc2)C1 (stereo not drawn) | 3.78% |  | 
5 | Cc1cc(C)c2sc(NC(=O)c3ccc(N4C(=O)CCC4=O)cc3)nc2c1 | 11.1% |  | 
6 | CCc1ccc(CN(C)C(=O)C2CCC(=O)N(CC3CCCCC3)C2)cc1 (stereo not drawn) | -11.2% |  | 5620 nM [rising, single point]
7 | CC(NC(=O)CN(C)S(=O)(=O)c1cccc2nsnc12)c1ccccc1 (stereo not drawn) | 4.58% | 6510 nM [rising, single point] | 6510 nM [rising, partial curve]
8 | CCCCNc1ccc(C(CC(N)=O)NC(=O)c2cc(C)cc(C)c2)cc1[N+](=O)[O-] (stereo not drawn) | 0.898% | 6510 nM [rising, single point] | 
9 | CC1(C)CC(=O)C(C=N)=C(O)C1 | -33.1% | 2310 nM [falling, full curve, poor fit] | 2590 nM [falling, full curve, poor fit]
10 | Cc1c(C)n2c(SCC(=O)N3CCCCCC3)nnc2[nH]c1=O | -17.8% | 25900 nM [falling, partial curve, poor fit] | 
11 | CCOC(=O)N1CCN(C(=S)NCCOC)CC1 | -33% | 1460 nM [falling, full curve] | 1160 nM [falling, full curve]
12 | CC1=NNC(=O)C1C(c1ccc(Cl)cc1)C(C#N)C#N (stereo not drawn) | -9.93% | 6510 nM [rising, single point] | 
13 | Cc1ccc(S(=O)(=O)N2CCC(C(=O)OCC(=O)N(C)CC(=O)Nc3ccc(F)cc3)CC2)cc1C | -1% |  | 
14 | CCOC(=O)C1Cn2c(nc3c(c2=O)C2(CCCC2)Cc2ccccc2-3)S1 (stereo not drawn) | -29.3% | 4.61 nM [falling, full curve, poor fit] | 1300 nM [falling, full curve, poor fit]
15 | COCCN(C(=O)c1ccc(COc2ccccc2)o1)c1c(N)n(CC(C)C)c(=O)[nH]c1=O | -11.3% | 29100 nM [falling, single point] | 
16 | Cc1ccc(N2C(=O)c3ccccc3C2Nc2ccc(S(=O)(=O)N3CCOCC3)cc2)nc1 (stereo not drawn) | -6.97% | 116 nM [rising, full curve, poor fit] | 

A section from the list above, as a working copy:
Row | SMILES | cell number change | AC50 [1] | AC50 [2]
9 | CC1(C)CC(=O)C(C=N)=C(O)C1 | -33.1% | 2310 nM [falling, full curve, poor fit] | 2590 nM [falling, full curve, poor fit]
10 | Cc1c(C)n2c(SCC(=O)N3CCCCCC3)nnc2[nH]c1=O | -17.8% | 25900 nM [falling, partial curve, poor fit] | 
